Like-named read-outs stand apart in the source and are kept apart here. Results are given in words; binding and its absence hold for the method and conditions named. In cells and extracts the contact can be indirect. Some entries that bind do so weakly or less than the wild type. For some of these results: Tags and fused reporters may be left off the sequences shown. One block for each molecule: values may come before it.
Tests used:
[1] = molecular target: T1, HsCYK-4 (RhoGAP subunit of centralspindlin), endogenous (human (endogenous in HeLa)) (UniProt Q9H0H5); test: co-IP; anti-HsCYK-4 (or control goat IgG) immunoprecipitation from DSP-treated whole-cell extracts of HeLa cells released from a nocodazole block, sampled at timepoints; blots for Plk1 and Ect2; lysis buffer 50 mM HEPES pH 7.5, 100 mM NaCl, 0.5% NP-40, 10% glycerol
T1 sequence: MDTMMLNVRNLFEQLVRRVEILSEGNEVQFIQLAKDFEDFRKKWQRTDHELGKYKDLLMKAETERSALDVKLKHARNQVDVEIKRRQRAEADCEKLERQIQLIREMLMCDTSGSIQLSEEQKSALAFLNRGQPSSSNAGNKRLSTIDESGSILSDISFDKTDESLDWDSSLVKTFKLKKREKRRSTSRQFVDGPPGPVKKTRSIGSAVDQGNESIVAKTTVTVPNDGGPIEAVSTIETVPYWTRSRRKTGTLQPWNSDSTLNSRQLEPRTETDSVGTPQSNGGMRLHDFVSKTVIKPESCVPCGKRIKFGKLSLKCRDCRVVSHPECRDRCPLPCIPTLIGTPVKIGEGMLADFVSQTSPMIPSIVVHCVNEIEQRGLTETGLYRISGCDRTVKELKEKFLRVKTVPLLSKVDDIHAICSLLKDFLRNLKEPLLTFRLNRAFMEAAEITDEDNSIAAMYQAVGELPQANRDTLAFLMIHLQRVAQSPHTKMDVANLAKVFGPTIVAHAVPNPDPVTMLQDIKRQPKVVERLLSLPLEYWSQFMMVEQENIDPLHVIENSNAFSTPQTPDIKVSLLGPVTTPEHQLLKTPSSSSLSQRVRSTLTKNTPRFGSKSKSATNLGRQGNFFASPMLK

Sequences of proteins named here, by UniProt entry; tags and fusion partners are left off.
UniProt P53350: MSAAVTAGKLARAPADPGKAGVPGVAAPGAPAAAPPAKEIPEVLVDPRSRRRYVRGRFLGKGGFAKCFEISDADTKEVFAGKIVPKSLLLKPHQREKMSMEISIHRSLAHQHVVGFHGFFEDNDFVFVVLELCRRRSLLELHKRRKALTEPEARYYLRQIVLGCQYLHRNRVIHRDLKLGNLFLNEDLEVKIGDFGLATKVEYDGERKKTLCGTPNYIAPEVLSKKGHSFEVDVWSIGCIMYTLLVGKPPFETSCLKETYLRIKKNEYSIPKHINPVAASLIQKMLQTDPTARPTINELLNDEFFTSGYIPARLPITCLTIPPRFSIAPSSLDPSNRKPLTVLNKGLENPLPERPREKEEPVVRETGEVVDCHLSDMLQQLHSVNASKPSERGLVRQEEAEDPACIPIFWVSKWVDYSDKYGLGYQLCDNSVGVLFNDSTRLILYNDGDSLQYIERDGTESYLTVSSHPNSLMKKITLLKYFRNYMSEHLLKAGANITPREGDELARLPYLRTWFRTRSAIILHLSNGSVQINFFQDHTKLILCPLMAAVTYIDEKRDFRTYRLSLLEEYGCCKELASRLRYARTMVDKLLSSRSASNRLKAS

[2] = molecular target: T2, myc-BRCT* (myc-tagged N-terminal fragment of Ect2, 1-352 T342A) (human) (UniProt Q9H8V3); test: co-IP; HeLa cotransfected with FLAG-HsCYK-4 versions and myc-BRCT*; mitotic cell extracts immunoprecipitated with anti-myc, blots with anti-FLAG and anti-myc; with or without Plk1 inhibition; control with myc peptide as competitor
T2 sequence: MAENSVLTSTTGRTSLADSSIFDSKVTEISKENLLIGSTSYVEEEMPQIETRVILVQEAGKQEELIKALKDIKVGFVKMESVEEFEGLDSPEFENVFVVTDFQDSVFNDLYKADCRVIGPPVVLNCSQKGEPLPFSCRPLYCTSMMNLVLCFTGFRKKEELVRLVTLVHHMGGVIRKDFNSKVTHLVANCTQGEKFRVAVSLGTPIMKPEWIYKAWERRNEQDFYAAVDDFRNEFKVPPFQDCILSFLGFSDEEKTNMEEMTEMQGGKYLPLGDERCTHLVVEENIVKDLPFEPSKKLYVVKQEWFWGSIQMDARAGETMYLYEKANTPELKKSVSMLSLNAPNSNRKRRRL

[3] = molecular target: T3, myc-Ect2 (full-length Ect2, myc epitope-tagged) (human) (UniProt Q9H8V3); test: co-IP; HeLa cotransfected with FLAG-HsCYK-4 versions and myc-Ect2; arrested 15 h with 5 uM S-trityl-L-cysteine (+ 200 nM BI 2536 where indicated), then RO-3306 for 20 min; whole-cell extracts immunoprecipitated with anti-myc, blots with anti-FLAG and anti-myc
T3 sequence: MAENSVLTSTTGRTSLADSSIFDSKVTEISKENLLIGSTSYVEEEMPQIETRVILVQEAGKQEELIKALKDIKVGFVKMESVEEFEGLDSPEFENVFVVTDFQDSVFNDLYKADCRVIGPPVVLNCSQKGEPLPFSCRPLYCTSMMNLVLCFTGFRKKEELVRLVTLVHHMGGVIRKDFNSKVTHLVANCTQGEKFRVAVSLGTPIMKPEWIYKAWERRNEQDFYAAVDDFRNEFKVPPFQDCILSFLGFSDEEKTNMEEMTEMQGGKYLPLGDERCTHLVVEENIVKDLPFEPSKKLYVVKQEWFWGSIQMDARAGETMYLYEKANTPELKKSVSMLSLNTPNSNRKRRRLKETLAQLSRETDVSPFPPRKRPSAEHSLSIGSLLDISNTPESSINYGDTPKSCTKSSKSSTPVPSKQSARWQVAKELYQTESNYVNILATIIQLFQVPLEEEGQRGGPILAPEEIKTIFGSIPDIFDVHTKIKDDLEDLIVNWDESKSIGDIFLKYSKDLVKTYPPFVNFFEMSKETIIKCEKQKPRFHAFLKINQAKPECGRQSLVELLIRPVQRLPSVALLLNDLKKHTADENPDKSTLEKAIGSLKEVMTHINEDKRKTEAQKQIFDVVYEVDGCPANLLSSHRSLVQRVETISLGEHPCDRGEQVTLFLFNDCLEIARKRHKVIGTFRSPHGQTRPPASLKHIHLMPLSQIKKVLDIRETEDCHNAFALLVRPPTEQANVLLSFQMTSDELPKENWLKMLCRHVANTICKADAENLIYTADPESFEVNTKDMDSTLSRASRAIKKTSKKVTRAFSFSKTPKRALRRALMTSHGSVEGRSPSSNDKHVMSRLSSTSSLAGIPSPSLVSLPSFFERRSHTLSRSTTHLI

[4] = molecular target: T1, HsCYK-4 (RhoGAP subunit of centralspindlin), endogenous (human (endogenous in HeLa)); test: co-IP; anti-HsCYK-4 (or control goat IgG) immunoprecipitation from DSP-treated whole-cell extracts of HeLa cells released from a nocodazole block, sampled at timepoints; blots for Plk1 and Ect2; lysis buffer 50 mM HEPES pH 7.5, 100 mM NaCl, 0.5% NP-40, 10% glycerol; remark: listed apart in the source

binding [1]: binds weakly
Molecule: Polo-like kinase 1 (Plk1), endogenous (from UniProt P53350 1-603)

binding [2]: binds
binding [3]: binds
B1: FLAG-HsCYK-4, wild-type (protein, UniProt Q9H0H5 1-632)
chain: MDTMMLNVRNLFEQLVRRVEILSEGNEVQFIQLAKDFEDFRKKWQRTDHELGKYKDLLMKAETERSALDVKLKHARNQVDVEIKRRQRAEADCEKLERQIQLIREMLMCDTSGSIQLSEEQKSALAFLNRGQPSSSNAGNKRLSTIDESGSILSDISFDKTDESLDWDSSLVKTFKLKKREKRRSTSRQFVDGPPGPVKKTRSIGSAVDQGNESIVAKTTVTVPNDGGPIEAVSTIETVPYWTRSRRKTGTLQPWNSDSTLNSRQLEPRTETDSVGTPQSNGGMRLHDFVSKTVIKPESCVPCGKRIKFGKLSLKCRDCRVVSHPECRDRCPLPCIPTLIGTPVKIGEGMLADFVSQTSPMIPSIVVHCVNEIEQRGLTETGLYRISGCDRTVKELKEKFLRVKTVPLLSKVDDIHAICSLLKDFLRNLKEPLLTFRLNRAFMEAAEITDEDNSIAAMYQAVGELPQANRDTLAFLMIHLQRVAQSPHTKMDVANLAKVFGPTIVAHAVPNPDPVTMLQDIKRQPKVVERLLSLPLEYWSQFMMVEQENIDPLHVIENSNAFSTPQTPDIKVSLLGPVTTPEHQLLKTPSSSSLSQRVRSTLTKNTPRFGSKSKSATNLGRQGNFFASPMLK

binding [4]: binds
B2: Ect2 (Rho GTP exchange factor), endogenous (protein, UniProt Q9H8V3-4 1-883)
chain: MAENSVLTSTTGRTSLADSSIFDSKVTEISKENLLIGSTSYVEEEMPQIETRVILVQEAGKQEELIKALKDIKVGFVKMESVEEFEGLDSPEFENVFVVTDFQDSVFNDLYKADCRVIGPPVVLNCSQKGEPLPFSCRPLYCTSMMNLVLCFTGFRKKEELVRLVTLVHHMGGVIRKDFNSKVTHLVANCTQGEKFRVAVSLGTPIMKPEWIYKAWERRNEQDFYAAVDDFRNEFKVPPFQDCILSFLGFSDEEKTNMEEMTEMQGGKYLPLGDERCTHLVVEENIVKDLPFEPSKKLYVVKQEWFWGSIQMDARAGETMYLYEKANTPELKKSVSMLSLNTPNSNRKRRRLKETLAQLSRETDVSPFPPRKRPSAEHSLSIGSLLDISNTPESSINYGDTPKSCTKSSKSSTPVPSKQSARWQVAKELYQTESNYVNILATIIQLFQVPLEEEGQRGGPILAPEEIKTIFGSIPDIFDVHTKIKDDLEDLIVNWDESKSIGDIFLKYSKDLVKTYPPFVNFFEMSKETIIKCEKQKPRFHAFLKINQAKPECGRQSLVELLIRPVQRLPSVALLLNDLKKHTADENPDKSTLEKAIGSLKEVMTHINEDKRKTEAQKQIFDVVYEVDGCPANLLSSHRSLVQRVETISLGEHPCDRGEQVTLFLFNDCLEIARKRHKVIGTFRSPHGQTRPPASLKHIHLMPLSQIKKVLDIRETEDCHNAFALLVRPPTEQANVLLSFQMTSDELPKENWLKMLCRHVANTICKADAENLIYTADPESFEVNTKDMDSTLSRASRAIKKTSKKVTRAFSFSKTPKRALRRALMTSHGSVEGRSPSSNDKHVMSRLSSTSSLAGIPSPSLVSLPSFFERRSHTLSRSTTHLI

From PMC2680336
